# Reference: US10994018B2 (priority 2017, dated 2021)
# Test: general procedure: Fmoc solid-phase peptide synthesis
# Details: whole synthesis, wavelength 230 nm
Substance,final HPLC purity (sodium salt),final HPLC purity (acetate salt)
Palmitate-Gln-His-Trp-Ser-Tyr-DLeu-Leu-Arg-Pro-NHEt [P2],98.2%,–
Palmitate-Gln-His-Trp-Ser-Tyr-DLeu-Leu-Arg-Pro-NHEt [P4],–,98.3%
Palmitate-Glu-His-Trp-Ser-Tyr-DLeu-Leu-Arg-Pro-NHEt [P1],98.2%,–
Palmitoyl-EHWSY[dL]LRP-NHEt (SMILES CCCCCCCCCCCCCCCC(=O)N[C@@H](CCC(=O)O)C(=O)N[C@@H](Cc1c[nH]cn1)C(=O)N[C@@H](Cc1c[nH]c2ccccc12)C(=O)N[C@@H](CO)C(=O)N[C@@H](Cc1ccc(O)cc1)C(=O)N[C@H](CC(C)C)C(=O)N[C@@H](CC(C)C)C(=O)N[C@@H](CCCNC(=N)N)C(=O)N1CCC[C@H]1C(=O)NCC) [P3],–,98.1%

# [ ]: non-standard residue; d: D form. The star is where a group is joined. Palmitoyl = CCCCCCCCCCCCCCCC(=O)*
